For some of these results: At least one read-out could not be matched to a standard name with certainty. Some entries share one result that the patent states for a list of compounds. d = 2'-deoxy (DNA); r = 2'-OH (RNA)
Columns and labels:
[1] = tested on: HIF-1α; experiment: Total HIF-1α ELISA, CoCl2-induced HIF stabilization; format: cell-based, human; conditions: compound #16 at 50 μM
Source text: Screening of HIF-1α de-stabilization by candidate MIF inhibitors. The presently disclosed discovery that MIF plays a central role in HIF stability was from studies done in pancreatic adenocarcinoma cell lines. […] This cell line can be utilized for large scale testing of candidate MIF antagonists. In order to scale up this in vitro screen, a DuoSet ELISA-based assay to detect total HIF-1α in human cell lysates can be utilized (R & D Systems). […] MIA-Paca-2 cells can be plated at 5×10^5 cells/well in 24 well plates for 16 hours. Media can be replaced with fresh media containing 0.1% DMSO (− control), 50 μM #16 (+ control) and 5, 50 μM concentrations of test inhibitor, all in duplicate wells. After 1 hour, cells can be challenged with 150 μM CoCl2 for an additional 6 hours. After rinsing the cells twice with PBS, supplied kit lysis buffer can be used to lyse the cells following manufacturer's directions. Prior coating and blocking of HIF-1α capture antibody can be performed according to instructions and diluted cell lysates can be assayed on the HIF-1α ELISA plates.

[2] = target: T1, recombinant MIF (rMIF) (Homo sapiens, UniProt P14174); experiment: L-dopachrome methyl ester tautomerase assay; format: biochemical; set-up: IC50 less than ISO-1, enzyme inhibition: unit not given beside the values
T1 construct: made in house
T1 sequence (P14174 2-115 limits assumed): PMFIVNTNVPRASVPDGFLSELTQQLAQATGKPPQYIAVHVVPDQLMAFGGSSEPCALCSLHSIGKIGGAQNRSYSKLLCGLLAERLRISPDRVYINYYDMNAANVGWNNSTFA

[3] = tested on: A549 cells; experiment: A549 cell migration in collagen coated transwell chambers; format: cell-based, human; conditions: A549, 16 hours; FIG. 10B
Protocol: In FIG. 10A, 500 nM rMIF was pre-mixed for 30 seconds with the indicated inhibitor concentrations followed by the addition of 2 mM final concentration of L-dopachrome methyl ester substrate. 5 minutes later OD 475 was measured spectrophotometrically (tautomerization leads to colorless substrate) and resulting data graphed. In FIG. 10B, 2×10^5 A549 cells transfected or pre-incubated with the indicated inhibitor or DMSO were added to the upper chamber of collagen coated transwell chambers. 16 hours later cells in the upper chamber were removed by swabbing and the bottom of the membranes were stained with crystal violet, solubilized, read at OD 570, and resulting data graphed.

Row | Compound | inhibition of CoCl2-induced HIF stabilization, of control [1] | IC50 less than ISO-1, enzyme inhibition ([2]; rMIF pre-mixed 30 seconds with inhibitor, FIG. 10A) | IC50 lower than that of 3′,4′,7-tryhydroxyisoflavone (TI) ([2]; relative to TI, FIG. 8) | IC50 less than ISO-1, migration inhibition [3]
1 | MIF siRNA: short interfering RNA (siRNA) oligos designed against human MIF; sense SEQ ID NO:3, antisense SEQ ID NO:4 (sense CCUUCUGGUGGGGAGAAAUTT; antisense AUUUCUCCCCACCAGAAGGTT; sugars from the 5' end r19 d2, backbone not given here) | 75-90% |  |  | 
2 | Ic1cc(-c2ccccc2)ncn1 [compound #16, 4-iodo-6-phenylpyrimidine] |  | 10 × | 5 × | 10 ×

From US8999984B2, “Macrophage migration inhibitory factor antagonists and methods of using same” (University of Louisville Research Foundation, Inc., priority 2006, dated 2015)
